Results are given in words; binding and its absence hold for the method and conditions named. Some results given as binding are weak or reduced against the parent protein; the word gives no strength.
Columns and labels:
[1] = molecular target: curli fibrils (CsgA) purified from Salmonella enterica serovar Typhimurium biofilm cultures (Salmonella enterica serovar Typhimurium) (UniProt P0A1E7); experiment: thioflavin T fluorescence; purified curli preparations, ~1 mg/ml, 10 uM ThT; excitation 440 nm, emission 500 nm; both purified
[2] = molecular target: curli fibrils (CsgA) purified from Salmonella enterica serovar Typhimurium biofilm cultures (Salmonella enterica serovar Typhimurium) (UniProt P0A1E7); experiment: dynamic light scattering; purified curli preparations, ~1 mg/ml, filtered; Malvern Zetasizer Nano-ZS90, He-Ne laser 632 nm; both purified
[3] = molecular target: curli fibrils (CsgA) purified from Salmonella enterica serovar Typhimurium biofilm cultures (Salmonella enterica serovar Typhimurium) (UniProt P0A1E7); experiment: tryptophan fluorescence (steady state); purified curli preparations, ~1 mg/ml; excitation 295 nm, emission 310-420 nm; single tryptophan of CsgA as probe of aggregation; both purified

Measured: binding

B1: curli fibrils (CsgA) purified from Salmonella enterica serovar Typhimurium biofilm cultures (protein, UniProt P0A1E7 21-151)
chain: GVVPQWGGGGNHNGGGNSSGPDSTLSIYQYGSANAALALQSDARKSETTITQSGYGNGADVGQGADNSTIELTQNGFRNNATIDQWNAKNSDITVGQYGGNNAALVNQTASDSSVMVRQVGFGNNATANQY
binds: all assays above
